Binding data for two substances are collected here from publication PMC5115893.

Sequences of proteins named here, by UniProt entry; tags and fusion partners are left off. Residues count along the entry.
UniProt Q8JZQ2, residues 67-802: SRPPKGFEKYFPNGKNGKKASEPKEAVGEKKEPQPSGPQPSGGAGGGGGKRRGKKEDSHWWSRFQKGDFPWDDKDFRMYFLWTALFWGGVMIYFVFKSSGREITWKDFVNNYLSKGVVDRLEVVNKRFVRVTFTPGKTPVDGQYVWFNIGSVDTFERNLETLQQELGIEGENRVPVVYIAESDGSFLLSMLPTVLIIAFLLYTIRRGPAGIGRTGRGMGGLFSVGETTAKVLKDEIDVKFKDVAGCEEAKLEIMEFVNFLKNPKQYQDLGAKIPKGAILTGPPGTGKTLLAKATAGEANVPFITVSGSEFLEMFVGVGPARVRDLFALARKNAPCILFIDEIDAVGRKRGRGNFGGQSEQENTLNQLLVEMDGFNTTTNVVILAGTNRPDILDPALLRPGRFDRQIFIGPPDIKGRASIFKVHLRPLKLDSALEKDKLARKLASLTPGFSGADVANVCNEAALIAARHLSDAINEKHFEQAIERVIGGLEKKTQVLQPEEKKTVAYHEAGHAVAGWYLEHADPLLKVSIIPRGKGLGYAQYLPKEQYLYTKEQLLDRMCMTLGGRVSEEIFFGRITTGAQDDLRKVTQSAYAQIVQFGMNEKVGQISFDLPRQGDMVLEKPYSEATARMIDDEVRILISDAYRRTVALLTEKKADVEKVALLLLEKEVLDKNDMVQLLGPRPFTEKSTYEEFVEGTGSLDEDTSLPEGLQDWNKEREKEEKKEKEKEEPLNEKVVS
UniProt Q9Y4W6, residues 67-797: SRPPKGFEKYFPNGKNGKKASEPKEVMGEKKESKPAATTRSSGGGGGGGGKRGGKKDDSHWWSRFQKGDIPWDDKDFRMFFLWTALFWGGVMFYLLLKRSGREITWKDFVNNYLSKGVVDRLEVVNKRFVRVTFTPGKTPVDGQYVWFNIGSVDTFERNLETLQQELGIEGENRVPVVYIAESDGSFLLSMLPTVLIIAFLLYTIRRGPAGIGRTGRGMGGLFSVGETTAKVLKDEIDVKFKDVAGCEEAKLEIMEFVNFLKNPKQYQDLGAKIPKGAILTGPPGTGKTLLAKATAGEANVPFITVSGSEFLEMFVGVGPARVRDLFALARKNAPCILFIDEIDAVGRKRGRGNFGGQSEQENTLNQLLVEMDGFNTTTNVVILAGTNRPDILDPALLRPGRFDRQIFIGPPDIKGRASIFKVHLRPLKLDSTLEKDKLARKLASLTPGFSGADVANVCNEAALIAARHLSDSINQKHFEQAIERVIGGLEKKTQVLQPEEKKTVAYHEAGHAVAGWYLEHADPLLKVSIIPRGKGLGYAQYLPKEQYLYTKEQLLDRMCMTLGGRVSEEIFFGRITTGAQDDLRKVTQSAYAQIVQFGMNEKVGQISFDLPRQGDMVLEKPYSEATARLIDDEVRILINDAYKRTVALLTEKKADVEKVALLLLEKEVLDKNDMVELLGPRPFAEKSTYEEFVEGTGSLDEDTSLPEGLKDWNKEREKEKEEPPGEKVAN

These are yes or no findings as the source states them, for the method shown. Binding seen in cells or lysates may run through a third protein. Some entries that bind do so weakly or less than the wild type.

Test [1] has as its target T1, caveolin-1 (mouse (endogenous in MEFs)) (UniProt P49817).
T1 sequence: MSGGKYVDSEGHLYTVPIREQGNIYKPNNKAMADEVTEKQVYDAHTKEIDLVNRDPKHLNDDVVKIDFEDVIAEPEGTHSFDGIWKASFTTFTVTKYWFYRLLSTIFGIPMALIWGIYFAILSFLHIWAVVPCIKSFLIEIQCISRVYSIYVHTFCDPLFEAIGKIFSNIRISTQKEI
Description: co-IP; mitochondrial fractions of wild type MEFs, untreated or treated with 150 μM hydrogen peroxide for 2 hours and recovered 7 days; immunoprecipitated with anti-caveolin-1, blotted with anti-AFG3L2; 10 mM Tris pH 8.0, 0.15 M NaCl, 5 mM EDTA, 1% Triton X-100, 60 mM octyl glucoside, overnight at 4°C.

For test [2], the target named is GST-Cav-1-FL (UniProt Q03135). Description: pull-down; GST-Cav-1 fusion proteins on glutathione-agarose beads; pre-cleared lysates of NIH 3T3 cells transiently transfected with AFG3L2-myc, diluted in 10 mM Tris pH 8.0, 0.1% Tween 20; overnight at 4°C; beads washed 6 times with PBS; only the target purified.
Test [3] deals with GST-Cav-1(82-101) (UniProt Q03135). Described as above.

In the case of AFG3L2 (from UniProt Q8JZQ2 67-802), the binding result in test [1] was “binds”.

For the substance AFG3L2-myc (from UniProt Q9Y4W6 67-797), the binding result in test [2] and in test [3] was “binds” each time.
